Results on six molecules are retold here after PMC9584626.

By UniProt entry, the sequences of proteins in these tests, tags left out. Where a name states a change or a piece, a line headed by the entry shows the natural chain unless it says otherwise. Residues count along the entry.
UniProt Q8S926, residues 1-118: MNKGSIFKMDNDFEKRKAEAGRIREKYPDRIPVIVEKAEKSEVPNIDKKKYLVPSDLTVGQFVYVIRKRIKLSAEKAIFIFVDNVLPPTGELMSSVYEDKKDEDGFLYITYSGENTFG
UniProt F4JM19: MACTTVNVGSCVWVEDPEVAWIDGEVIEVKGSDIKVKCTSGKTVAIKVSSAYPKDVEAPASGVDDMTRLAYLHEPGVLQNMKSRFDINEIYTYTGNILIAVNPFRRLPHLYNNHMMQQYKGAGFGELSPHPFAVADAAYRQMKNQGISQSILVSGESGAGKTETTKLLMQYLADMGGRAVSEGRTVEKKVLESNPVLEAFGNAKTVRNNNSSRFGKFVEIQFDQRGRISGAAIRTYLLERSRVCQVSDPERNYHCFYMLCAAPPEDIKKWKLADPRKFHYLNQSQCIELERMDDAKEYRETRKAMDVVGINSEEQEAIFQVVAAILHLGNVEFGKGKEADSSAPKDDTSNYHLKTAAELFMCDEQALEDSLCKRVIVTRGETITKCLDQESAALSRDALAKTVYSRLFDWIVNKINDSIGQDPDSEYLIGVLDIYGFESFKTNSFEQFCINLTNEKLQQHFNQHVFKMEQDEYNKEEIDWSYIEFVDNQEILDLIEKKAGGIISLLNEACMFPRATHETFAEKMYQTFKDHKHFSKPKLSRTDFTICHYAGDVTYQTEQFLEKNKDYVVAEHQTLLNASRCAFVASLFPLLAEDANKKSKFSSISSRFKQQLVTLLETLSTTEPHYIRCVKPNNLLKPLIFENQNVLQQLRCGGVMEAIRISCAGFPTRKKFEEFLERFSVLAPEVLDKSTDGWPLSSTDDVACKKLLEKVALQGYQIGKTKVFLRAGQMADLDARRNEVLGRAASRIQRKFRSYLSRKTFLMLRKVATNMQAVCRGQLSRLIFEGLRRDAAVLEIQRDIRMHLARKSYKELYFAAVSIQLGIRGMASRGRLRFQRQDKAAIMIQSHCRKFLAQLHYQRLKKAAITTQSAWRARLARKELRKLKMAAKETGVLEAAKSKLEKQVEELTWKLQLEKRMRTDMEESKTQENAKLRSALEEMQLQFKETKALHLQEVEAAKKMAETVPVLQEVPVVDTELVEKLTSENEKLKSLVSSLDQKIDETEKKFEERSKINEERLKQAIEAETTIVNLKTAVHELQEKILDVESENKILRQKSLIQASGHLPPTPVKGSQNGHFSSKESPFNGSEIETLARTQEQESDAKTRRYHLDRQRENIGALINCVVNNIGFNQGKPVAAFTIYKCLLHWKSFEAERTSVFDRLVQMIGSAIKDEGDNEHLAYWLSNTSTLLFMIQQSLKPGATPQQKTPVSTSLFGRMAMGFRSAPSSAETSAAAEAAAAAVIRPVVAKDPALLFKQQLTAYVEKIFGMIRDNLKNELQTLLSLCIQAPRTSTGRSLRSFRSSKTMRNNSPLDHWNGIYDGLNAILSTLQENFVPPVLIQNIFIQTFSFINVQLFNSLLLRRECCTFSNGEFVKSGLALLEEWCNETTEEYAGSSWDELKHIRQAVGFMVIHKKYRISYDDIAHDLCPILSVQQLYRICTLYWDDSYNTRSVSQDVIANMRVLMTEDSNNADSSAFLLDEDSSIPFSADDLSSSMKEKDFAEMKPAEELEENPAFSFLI
UniProt Q9LXL1: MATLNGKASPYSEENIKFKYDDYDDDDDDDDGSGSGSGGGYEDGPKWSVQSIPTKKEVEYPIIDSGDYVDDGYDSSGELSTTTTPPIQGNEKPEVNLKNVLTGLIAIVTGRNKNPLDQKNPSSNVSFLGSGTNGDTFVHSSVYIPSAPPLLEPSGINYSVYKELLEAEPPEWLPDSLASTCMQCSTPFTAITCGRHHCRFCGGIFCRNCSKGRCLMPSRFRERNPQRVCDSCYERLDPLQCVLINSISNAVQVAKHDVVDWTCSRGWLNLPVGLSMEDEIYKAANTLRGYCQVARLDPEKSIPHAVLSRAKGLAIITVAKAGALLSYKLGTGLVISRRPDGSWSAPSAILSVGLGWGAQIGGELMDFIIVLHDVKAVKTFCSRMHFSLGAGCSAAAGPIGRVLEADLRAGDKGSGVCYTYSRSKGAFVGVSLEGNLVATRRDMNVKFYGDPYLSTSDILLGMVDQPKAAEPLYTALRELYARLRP

These are yes or no findings as the source states them, for the method shown. Binding seen in cells or lysates may run through a third protein. A yes stands for co-enrichment or nearness to the bait. Other partners may have been found.

To fix the notation:
B1: SH3P2 (protein, UniProt Q8VWF1 1-368)
chain: MDAIRKQASRLREQVARQQQAVFKQFGGGGYGSGLADEAELNQHQKLEKLYISTRAAKHYQRDIVRGVEGYIVTGSKQVEIGTKLSEDSRKYGSENTCTNGNVLTRAALNYGRARAQMEKERGNMLKALGTQVAEPLRAMVLGAPLEDARHLAQRYDRMRQEAEAQATEVARRQAKARESQGNPDILMKLESAEAKLHDLKSNMTILGKEAASALASVEDQQQKLTLERLLSMVESERAYHQRVLQILDQLEGEMVSERQRIEAPSTPSSADSMPPPPSYEEANGVFASQMHDTSTDSMGYFLGEVLFPYHGVTDVELSLSTGEYVVVRKVTGSGWAEGECKGKAGWFPYGYIERRERVLASKVSEVF
B2: NUP93A (protein, UniProt O22224 1-861)
chain: MANDQEMSGWTDLLHSSSKLLEQAAPSSQFPPLQRNLDQLEALSKKLKAKTLRNEAPSQSIAATRLLAREGINAEQLARDLKSFELKTTFEDVFPAEATSVEEYLQQVHEMAMVSAIQEAQKDNVRSFNDYMMKVLEEDWRKEKRDFLQSLSRISMLPKTNMIDTSREAHAGQLVPVGSSPRVSSTPGKELVALANIPIHEKKAYVYGEVVKKLNTSRERGMPFRPAMCFKDAYDTLGAEVTRGKSVNMQKIWQLVQAITGEDSAVRQGVSKRMALAIGARHHLQHGHEKFIMDTIQTHPTQAALGGSVGNLQRIRAFLRIRLRDYGVLDFDSTDARRQPPVDTTWQQIYFCLRTGYYEEAREIARSTRSSQQFAPLLTEWITTDGMVAAESAAIASEECEKMLRMGDRLGRTAYDKKKLLLYTIISGSRRQIERILRDLSTLFNTIEDFLWFKLSCIRDVTGGSSSVVLNDGLAPYSLDDLQAYLNKFEPSYYTKNGKDPLVYPYVLLLSVQLLPAIMHLSKEAGDGGYNIDAVHIAISLVDHSVLSEGSGTGHKLSVMDSNAEASSMIRQYGSMFLHHGDLQMTVEYYAQAAATVGGGQLAWSGRSNVDQQRQRNLMLKQLLTEILLRERGIYFLLGARGSGEEGQLGRFFPDSRLRQQFLVEAAHQCQEAGLYDKSIELQKRVGAFSAALETINKCLSEAICSLARGRLDGESRTSGLILAGNDILETYKYYPEVSLQERERVMEQETILRELEAILSIHKLGRLGNHLDALREIAKLPFLHLDPRMPDATADVFQSASPYFQTCVPDLLKVALTCLDNVPDTDGSIRAMRSKIAGFLASNTHRNWPRDLYEKVARSF
B3: NUP98A (protein, UniProt Q8RY25 1-1041)
chain: MFGSSNPFGQSSGTSPFGSQSLFGQTSNTSSNNPFAPATPFGTSAPFAAQSGSSIFGSTSTGVFGAPQTSSPFASTPTFGASSSPAFGNSTPAFGASPASSPFGGSSGFGQKPLGFSTPQSNPFGNSTQQSQPAFGNTSFGSSTPFGATNTPAFGAPSTPSFGATSTPSFGASSTPAFGATNTPAFGASNSPSFGATNTPAFGASPTPAFGSTGTTFGNTGFGSGGAFGASNTPAFGASGTPAFGASGTPAFGASSTPAFGASSTPAFGASSTPAFGGSSTPSFGASNTSSFSFGSSPAFGQSTSAFGSSAFGSTPSPFGGAQASTPTFGGSGFGQSTFGGQQGGSRAVPYAPTVEADTGTGTQPAGKLESISAMPAYKEKNYEELRWEDYQRGDKGGPLPAGQSPGNAGFGISPSQPNPFSPSPAFGQTSANPTNPFSSSTSTNPFAPQTPTIASSSFGTATSNFGSSPFGVTSSSNLFGSGSSTTTSVFGSSSAFGTTTPSPLFGSSSTPGFGSSSSIFGSAPGQGATPAFGNSQPSTLFNSTPSTGQTGSAFGQTGSAFGQFGQSSAPAFGQNSIFNKPSTGFGNMFSSSSTLTTSSSSPFGQTMPAGVTPFQSAQPGQASNGFGFNNFGQNQAANTTGNAGGLGIFGQGNFGQSPAPLNSVVLQPVAVTNPFGTLPAMPQISINQGGNSPSIQYGISSMPVVDKPAPVRISSLLTSRHLLHRRVRLPARKYRPGENGPKVPFFTDDEESSSTPKADALFIPRENPRALVIRPVQQWSSRDKSILPKEQRPTAPLHDNGKSPDMATDAANHDRNGNGELGATGERIHTSVNANQKPNGTTRSDQASEKERPYKTLSGHRAGEAAIVYEHGADIEALMPKLRQSDYFTEPRIQELAAKERADPGYCRRVRDFVVGRHGYGSIKFMGETDVRRLDLESLVQFNTREVIVYMDESKKPAVGQGLNKPAEVTLLNIKCIDKKTGKQFTEGERVEKYKMMLKKKAEAQGAEFVSFDPVKGEWKFRVEHFSSYKLGDEDEEDGV
B4: FRA3 (protein, UniProt Q84W55 1-1101)
chain: MEDRQNDQNDDVFSFFSPSFSAATPSTLFNRSAYSSSSSSGDDESQPSVDDSNKRIDYMIQFLDRRLSEDGNHDGIGDGNGSDSLPEFVGKCGESGIFKVPIRSAVHPNRPPSLDVRPHPLRETQIGRFLRTMTSTERQLWTGGEDGALRVWEFSELYGSGRGLEVEDTAPYKESLGNEFGSAAVVCMIGDEGSRVVWSGHRDGRIRCWRLRGDHGIEEALSWQAHRGPVLSIAISAYGDIWSGSEGGALKVWPWDGALGKSLSLKMEERHMAALAVERSYIDPRNMVSANGFANTLTSDVTFLVSDHTRARVWSASPLTFAIWDARTRDLIKVFNIDGQLENRPENSVYPDFGSEEEGKMKVTASKKEKAQSSLGFFQRSRNAIMGAADAVRRAATKGGFCDDSRKTEAIVISVDGMIWTGSSNGILMRWDGNGNCLQEFAYESSGILCMFTFCSRLWVGYSNGTVQVWDLEGKLLGGWVAHSGPVIKMAIGAGYLFTLANHGGIRGWNVTSPGPLDNVLRAELAGKEFLYSRIENLKILAGTWNVGEGRASTDSLVSWLGCAATGVEIVVVGLQEVEMGAGVLAMSAAKETVGLEGSPLGQWWLDMIGKTLDEGSSFVRVGSRQLAGLLICVWVRHDLKPHVGDVDAAAVPCGFGRAIGNKGAVGVRLRMYDRVLCFVNCHFAAHLEAVNRRNADFDHVYRTMTFSRQSSSLNAGVAGASFGVTMPRGGNALGVNTIEARPELSEADMVIFLGDFNYRLDDITYDETRDFISQRCFDWLREKDQLHTEMEAGNVFQGMREAIIRFPPTYKFERHQAGLAGYDSGEKKRIPAWCDRILYRDNKKHLGAECSLDCPVVSSISQYDACMEVTDSDHKPVRCVFSVKIARVDESVRRQEYGNIINSNKKIKVLLGELSKVPETIVSTNNIILQNQDSTILRITNKSEKNIAFFKIICEGQSKIEEDGQAHDHRARGSFGFPQWLEVSPGTGTIKPNQIAEVSVHLEDFPTVEEFVDGVAQNSWCEDTRDKEVILVLVVHGRFSTETRKHRIRVRHCPRGGPAKNHFNDGTKTSGQINALHRSDYHQLSNTLDVVEQLKNLHSP

The test deals with mCherry-ATG8E (Arabidopsis thaliana) (UniProt Q8S926). The experiment in a line: affinity purification with mass spectrometry; mCherry-ATG8E as bait on RFP-Trap magnetic agarose beads; S4, P4 and P4 + proteinase K fractions from differential centrifugation of 7-d-old seedlings treated with 3 uM Torin 1 for 90 min; 0.1% Nonidet P-40/Igepal added; mCherry alone as control.
Take Myosin 14 (from UniProt F4JM19 1-1516): the binding result is given as “binds”.

For “CFS1 (cell death related endosomal FYVE/SYLF protein 1), endogenous (from UniProt Q9LXL1)”, the binding result is on record as “binds”.

For the molecule B1, the binding result is on record as “binds”.

For the molecule B2, the binding result is recorded as “binds”.

Regarding B3, the binding entry is recorded as “binds”.

As to B4, the binding entry was “binds”.
